Values from PubChem BioAssay AID1508597 (Cure First, 2020).

Assay: 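Knock-downs altering ovarian cancer cell survival with or without PARP inhibitor rucaparib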 (primary screen)
Cells: human ovarian carcinoma lines grown from tumours: OCI-P5x (papillary serous) and OCI-C5x (clear cell)
Reagents: siRNA pool against human genes, 1.25 pmol siRNA per well
Timing: 72 h or 96 h, depending on the cell culture
Treatment: rucaparib 20 µM (about IC30) or vehicle, present until read-out
Measured: 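ATP luminescence measured at 72 or 96 h according to the culture, then normalised and expressed as percent viability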
Scale: viability, normalised: higher = more viable cells remaining
Hit rule: 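Active when normalised viability falls below 80 percent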
Calls: active = viability under 80%; inactive = viability 80% or more
The whole screen tested about 2,100 reagents; shown is a part drawn at random. 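Calls flag viability under 80% in either arm, not effects specific to rucaparib; the reference for percent is not stated.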 Entries without a mark were called inactive. Not stated in the record: the 100% reference.

no.	Gene	rucaparib or vehicle	cell line	technical replicate	viability, normalised (%)
1	GNPAT	Rucaparib	OCI-C5x (clear cell)	1	41.1 (active)
2	GNPAT	Rucaparib	OCI-C5x (clear cell)	2	59.9 (active)
3	GNPAT	Rucaparib	OCI-C5x (clear cell)	3	58 (active)
4	GNPAT	Rucaparib	OCI-P5x (serous)	1	56.4 (active)
5	GNPAT	Rucaparib	OCI-P5x (serous)	2	41.9 (active)
6	GNPAT	Rucaparib	OCI-P5x (serous)	3	69.4 (active)
7	GNPAT	Vehicle	OCI-C5x (clear cell)	1	58 (active)
8	GNPAT	Vehicle	OCI-C5x (clear cell)	2	71.4 (active)
9	GNPAT	Vehicle	OCI-C5x (clear cell)	3	53 (active)
10	GNPAT	Vehicle	OCI-P5x (serous)	1	52.5 (active)
11	GNPAT	Vehicle	OCI-P5x (serous)	2	58.5 (active)
12	GNPAT	Vehicle	OCI-P5x (serous)	3	64.3 (active)
13	TGFBR3	Rucaparib	OCI-C5x (clear cell)	1	69.3 (active)
14	TGFBR3	Rucaparib	OCI-C5x (clear cell)	2	69.3 (active)
15	TGFBR3	Rucaparib	OCI-C5x (clear cell)	3	54.9 (active)
16	TGFBR3	Rucaparib	OCI-P5x (serous)	1	73.1 (active)
17	TGFBR3	Rucaparib	OCI-P5x (serous)	2	86.2
18	TGFBR3	Rucaparib	OCI-P5x (serous)	3	68.4 (active)
19	TGFBR3	Vehicle	OCI-C5x (clear cell)	1	58.4 (active)
20	TGFBR3	Vehicle	OCI-C5x (clear cell)	2	66.3 (active)
21	TGFBR3	Vehicle	OCI-C5x (clear cell)	3	44.1 (active)
22	TGFBR3	Vehicle	OCI-P5x (serous)	1	74 (active)
23	TGFBR3	Vehicle	OCI-P5x (serous)	2	83.9
24	TGFBR3	Vehicle	OCI-P5x (serous)	3	90.2
25	WNT5A	Rucaparib	OCI-C5x (clear cell)	1	56.7 (active)
26	WNT5A	Rucaparib	OCI-C5x (clear cell)	2	58.5 (active)
27	WNT5A	Rucaparib	OCI-C5x (clear cell)	3	51.2 (active)
28	WNT5A	Rucaparib	OCI-P5x (serous)	1	76.7 (active)
29	WNT5A	Rucaparib	OCI-P5x (serous)	2	71 (active)
30	WNT5A	Rucaparib	OCI-P5x (serous)	3	42.1 (active)
31	WNT5A	Vehicle	OCI-C5x (clear cell)	1	46.5 (active)
32	WNT5A	Vehicle	OCI-C5x (clear cell)	2	60.1 (active)
33	WNT5A	Vehicle	OCI-C5x (clear cell)	3	51.3 (active)
34	WNT5A	Vehicle	OCI-P5x (serous)	1	42.6 (active)
35	WNT5A	Vehicle	OCI-P5x (serous)	2	57.7 (active)
36	WNT5A	Vehicle	OCI-P5x (serous)	3	59.8 (active)
37	ADAM9	Rucaparib	OCI-C5x (clear cell)	1	35 (active)
38	ADAM9	Rucaparib	OCI-C5x (clear cell)	2	25.9 (active)
39	ADAM9	Rucaparib	OCI-C5x (clear cell)	3	26.3 (active)
40	ADAM9	Rucaparib	OCI-P5x (serous)	1	58.2 (active)
41	ADAM9	Rucaparib	OCI-P5x (serous)	2	57.6 (active)
42	ADAM9	Rucaparib	OCI-P5x (serous)	3	43.1 (active)
43	ADAM9	Vehicle	OCI-C5x (clear cell)	1	27.8 (active)
44	ADAM9	Vehicle	OCI-C5x (clear cell)	2	39.4 (active)
45	ADAM9	Vehicle	OCI-C5x (clear cell)	3	31.4 (active)
46	ADAM9	Vehicle	OCI-P5x (serous)	1	42.8 (active)
47	ADAM9	Vehicle	OCI-P5x (serous)	2	57.2 (active)
48	ADAM9	Vehicle	OCI-P5x (serous)	3	49.5 (active)
